Experimental findings from PubChem BioAssay AID1487 (National Center for Advancing Translational Sciences (NCATS), 2009) are described below.

A short description of the assay: qHTS Assay for Modulators of Lamin A Splicing. The note with it: HeLa LMNA splicing GFP/RFP minigene ratio, 48 h. The method in brief:
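S3 HeLa stable clones carrying a lamin A-EGFP splicing minigene plus DsRed2 were seeded at 600 cells/well in Opti-MEM with 2% FBS, pin-dosed and incubated 48 h at 37°C. Acumen cytometry (488 nm) gave the GFP/RFP total-intensity ratio.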
Background: Quantitative high-throughput screening tests each substance at several concentrations.

The mark [1] stands for this setting: measured here: RFP viability control channel.
Setting [2] is: measured here: GFP splicing reporter channel.

Some of the results follow. Further columns of the screen follow, without active or inactive calls. The list favours compounds with an active or inconclusive main result. Words in brackets tell the shape of the fitted curve; partial curves, single points and poor fits give uncertain potencies.

A word on the AC50: it is the concentration at which the activity in the assay is half-maximal.

As to `O=C1c2ccccc2C(=O)N1CCCCCc1nc(-c2ccccc2)no1`, the AC50 under setting [1] is 35.5 µM [rising, single point].
As for `CCOC(=O)C(NC(=O)c1ccccc1OCC)(Nc1ncccn1)C(F)(F)F` (stereo not drawn), the AC50 runs as follows: under setting [2], 3.55 µM [rising, partial curve]; under setting [1], 4.47 µM [rising, partial curve].
Turning to `O=C(Nc1ccc2oc(-c3ccccc3)nc2c1)c1ccncc1`, the AC50 by setting is: under setting [2], 17.8 µM [rising, partial curve]; under setting [1], 12.6 µM [rising, partial curve].
Turning to `O=C(Nc1cccc(-c2nc3cc(Cl)ccc3o2)c1)c1ccc(F)cc1`, the AC50 runs as follows: under setting [2], 35.5 µM [falling, single point]; under setting [1], 35.5 µM [falling, single point].
As to `COc1cc(OC)nc(S(C)(=O)=O)n1`, the AC50 under setting [1] is 0.00398 µM [falling, full curve, poor fit].
In the case of `NC(=S)N/N=C/c1ccc(-c2cc(Cl)cc(Cl)c2)o1`, the AC50 under setting [2] was 15.8 µM [rising, partial curve, poor fit] and the AC50 under setting [1] is 22.4 µM [rising, single point].
`Cc1ccc2nc(N(CCN(C)C)C(=O)/C=C/c3cccs3)sc2c1`: the AC50 under setting [2] is 5.01 µM [rising, single point].
As to `Cc1ccc2nc(-c3ccccn3)cc(C(=O)Nc3ccc(S(=O)(=O)N4CCOCC4)cc3)c2c1`, under setting [2], the AC50 is 0.1 µM [falling, full curve, poor fit].
Consider `O=C(Nc1cccc(Cl)c1)Nc1nnc(CSCCOc2ccc(Cl)cc2)s1`, for which, under setting [1], the AC50 was 3.16 µM [rising, full curve].
On to `CN(C)CCCN(C(=O)c1sc2ccccc2c1Cl)c1nc2ccc(F)cc2s1`, for which the AC50 was 11.2 µM [rising, partial curve] under setting [2] and 12.6 µM [rising, partial curve] under setting [1].
For `O=C(CCn1cnc2onc(-c3ccc(F)cc3)c2c1=O)N1CCN(c2ccccc2)CC1`, under setting [1], the AC50 was 35.5 µM [falling, partial curve, poor fit].
On to `O=C(c1cnc(N2CCCCC2)c2ccccc12)N1CCN(c2ccc(Cl)cc2)CC1`, for which the AC50 is 0.000562 µM [falling, full curve, poor fit] under setting [2] and 6.31 µM [falling, partial curve, poor fit] under setting [1].
With `Cc1ccc(C2CC(C(F)(F)F)n3nc(C(=O)NCc4c(C)nn(C)c4C)c(Cl)c3N2)cc1` (stereo not drawn), the concentration at half-maximal activity (AC50) was 11.2 µM [rising, partial curve] under setting [2] and 11.2 µM [rising, partial curve] under setting [1].
`Cc1ccc(C)c(S(=O)(=O)NCCc2csc(-c3ccc(Cl)cc3)n2)c1`: the AC50 was 35.5 µM [falling, single point] under setting [2] and 35.5 µM [falling, single point] under setting [1].
Take `O=C(COC(=O)c1ccc(Oc2ccccc2)cc1)Nc1nnc(-c2ccccc2)o1`: the AC50 under setting [1] was 35.5 µM [rising, single point].
For `Cc1cc(C)c2sc(N(Cc3cccnc3)C(=O)CCOc3ccccc3)nc2c1`, the AC50 under setting [2] was 6.31 µM [falling, partial curve, poor fit].
As to `CC1=CC(C)(C)N(S(=O)(=O)c2ccc(C)cc2)c2ccccc21`, the AC50 reads like this: under setting [2], 2.82 µM [falling, partial curve]; under setting [1], 5.62 µM [rising, single point].
Regarding `COc1ccccc1-c1nnc2sc(COc3ccc(Cl)cc3Cl)nn12`, the AC50 is, setting by setting: under setting [2], 10 µM [falling, partial curve, poor fit]; under setting [1], 12.6 µM [falling, partial curve, poor fit].
For `O=c1cc(-c2ccccc2)[nH]n1-c1ccc([N+](=O)[O-])cc1`, the AC50 by setting is: under setting [2], 22.4 µM [falling, single point]; under setting [1], 35.5 µM [falling, single point].
For `COc1ccc(CSc2nc(C)cc(=O)[nH]2)cc1Br`, the AC50 under setting [1] is 11.2 µM [rising, partial curve].
As for `C=CCC1NCCc2c(Br)cccc21` (stereo not drawn), the AC50 under setting [2] is 7.08 µM [falling, partial curve, poor fit].
On to `O=C(O)c1ccc(OC2CSC2)cc1`, for which the AC50 under setting [1] was 6.31 µM [falling, single point].
On the same count and under the same terms, the value for `O=[N+]([O-])c1ccc(C[n+]2cccc3c4ccccc4ccc32)cc1` was 0.00447 µM [falling, full curve, poor fit].
Regarding `Cn1c(O)c(C2=c3ccccc3=NC2=O)[nH]c1=S`, the AC50 under setting [2] was 2.82 µM [rising, full curve, poor fit] and the AC50 under setting [1] is 4.47 µM [rising, partial curve].
In the case of `Cc1ccc(C(c2c(C)nn(-c3ccccc3)c2N)c2c(C)nn(-c3ccccc3)c2N)cc1`, the AC50 by setting is: under setting [2], 3.55 µM [rising, full curve]; under setting [1], 0.141 µM [rising, full curve, poor fit].
On to `COc1ccc(NC(=S)Nc2cccc(C(C)=O)c2)cc1OC`, for which the AC50 under setting [1] is 11.2 µM [rising, single point].
Regarding `COc1cc(NC(=O)CSc2nc3[nH]ncc3c(=O)n2-c2ccccc2C)cc(OC)c1OC`, the AC50 under setting [2] is 15.8 µM [rising, single point].
Consider `Nc1ccc(-c2nc3nc(N)nc(N)c3nc2-c2ccc(N)cc2)cc1`, for which the AC50 under setting [2] is 11.2 µM [rising, partial curve, poor fit].
For `CC1(C)CC(=O)C2=C(C1)NC1=C(C(=O)c3ccccc31)C2c1ccc(O)cc1` (stereo not drawn), the AC50 under setting [1] was 35.5 µM [rising, single point].
Regarding `O=C(Nc1ccc(S(=O)(=O)N2CCc3ccccc3C2)cc1)C1CCCO1` (stereo not drawn), the AC50 reads like this: under setting [2], 10 µM [rising, single point]; under setting [1], 17.8 µM [rising, partial curve].
With `c1cncc(-c2nccc(NCc3cccs3)n2)c1`, the AC50 under setting [2] is 0.282 µM [falling, full curve, poor fit].
`C=C(C)c1cccc(C(C)(C)NC(=O)Nc2ccc(OC)cc2)c1`: the AC50 under setting [2] is 0.0112 µM [falling, full curve, poor fit].
Regarding `CCCCc1ccc(NS(=O)(=O)c2ccc(N3CCCCS3(=O)=O)cc2)cc1`, under setting [1], the half-maximal activity concentration (AC50) was 22.4 µM [rising, partial curve, poor fit].
The same measure, in the same setting: next, `Cc1cccc(-n2nnc(C(=O)Nc3ccc(F)cc3)c2N)c1`: 0.0126 µM [rising, full curve, poor fit].
